Data as given in publication doi:10.1101/2022.02.27.481910 (bioRxiv, 2022).

Molecular target: T1, KaiC-EE (S431E, T432E) (UniProt Q79PF4)
T1 sequence: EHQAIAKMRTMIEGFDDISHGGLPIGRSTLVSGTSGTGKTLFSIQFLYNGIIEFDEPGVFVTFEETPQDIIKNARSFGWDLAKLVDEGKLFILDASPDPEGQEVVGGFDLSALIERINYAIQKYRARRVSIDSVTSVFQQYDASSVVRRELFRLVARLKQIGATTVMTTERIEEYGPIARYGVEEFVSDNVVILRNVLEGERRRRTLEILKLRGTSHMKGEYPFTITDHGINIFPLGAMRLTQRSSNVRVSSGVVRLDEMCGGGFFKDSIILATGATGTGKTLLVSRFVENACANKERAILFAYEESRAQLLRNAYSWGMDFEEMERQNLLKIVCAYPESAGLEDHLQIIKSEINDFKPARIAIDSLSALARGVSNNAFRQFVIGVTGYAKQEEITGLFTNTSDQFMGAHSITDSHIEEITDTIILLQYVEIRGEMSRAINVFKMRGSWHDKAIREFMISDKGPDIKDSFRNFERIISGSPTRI
Assay: cryo-EM structure

## KaiC-AA (S431A, T432A) (from UniProt Q79PF4) (enzyme)
  binding: binds

These are yes or no findings as the source states them, for the method shown. Binding calls can cover weak binding; strength is not graded here.
